Measured values taken from patent US20060188508A1, “Methods and compositions for modulating angiogenesis” (priority 2005, published 2006).
At least one peptide structure holds a part that was inferred or is arguable (an end, a ring closure or a residue). Ends that are not written are not given here.

Experiments:
clone 18 cells = assay: Modulation of drug cytotoxicity by added TSP-1, mimetic peptides, antibody or MDR inhibitor (MTT viability); assay type: cell-based, human; settings: adriamycin, etoposide, vinblastine, vincristine, epothilone B
M2182tTA cells = assay: Modulation of drug cytotoxicity by added TSP-1, mimetic peptides, anti-CD47 antibody or pertussis toxin (MTT viability); assay type: cell-based, human

KRFYVVMWKK [4N1K]
Effect on killing of clone 18 cells by other chemotherapeutic agents (clone 18 cells): no detectable effects
Effect on taxol-mediated killing of naïve M2182tTA cells (M2182tTA cells; added to culture with taxol, MTT): enhanced cell killing by taxol
Effect on sensitivity of M2182tTA cells to other chemotherapeutic drugs (M2182tTA cells; adriamycin, etoposide, vinblastine, vincristine, epothilone B): no detectable effects
